The numbers were not newly measured in US10132799B2, “Screening of conjugated antibodies” (Innate Pharma, priority 2012, dated 2018), which cites them from elsewhere.

Molecules are shown by their SMILES.

For this series the following is noted: general statement on poorly soluble hydrophobic drugs.

As for `CC[C@@]1(O)C(=O)OCc2c1cc1n(c2=O)Cc2cc3ccccc3nc2-1` [CPT, camptothecin], the solubility in water result was “about 2.5 μg/ml”.
For `CC(=O)O[C@H]1C(=O)[C@@]2(C)[C@H]([C@H](OC(=O)c3ccccc3)[C@]3(O)C[C@H](OC(=O)[C@H](O)[C@@H](NC(=O)c4ccccc4)c4ccccc4)C(C)=C1C3(C)C)[C@]1(OC(C)=O)CO[C@@H]1C[C@@H]2O` [PTX, paclitaxel], the solubility in water result is given as “less than 1 μg/ml”.
